Experimental data published in article PMC7993706.
Results are given in words; binding and its absence hold for the method and conditions named. Binding seen in cells or lysates may run through a third protein. Some entries that bind do so weakly or less than the wild type. One block for each molecule: values may come before it.

Chains of the proteins cited; added tags and fusions are not shown.
UniProt P26361: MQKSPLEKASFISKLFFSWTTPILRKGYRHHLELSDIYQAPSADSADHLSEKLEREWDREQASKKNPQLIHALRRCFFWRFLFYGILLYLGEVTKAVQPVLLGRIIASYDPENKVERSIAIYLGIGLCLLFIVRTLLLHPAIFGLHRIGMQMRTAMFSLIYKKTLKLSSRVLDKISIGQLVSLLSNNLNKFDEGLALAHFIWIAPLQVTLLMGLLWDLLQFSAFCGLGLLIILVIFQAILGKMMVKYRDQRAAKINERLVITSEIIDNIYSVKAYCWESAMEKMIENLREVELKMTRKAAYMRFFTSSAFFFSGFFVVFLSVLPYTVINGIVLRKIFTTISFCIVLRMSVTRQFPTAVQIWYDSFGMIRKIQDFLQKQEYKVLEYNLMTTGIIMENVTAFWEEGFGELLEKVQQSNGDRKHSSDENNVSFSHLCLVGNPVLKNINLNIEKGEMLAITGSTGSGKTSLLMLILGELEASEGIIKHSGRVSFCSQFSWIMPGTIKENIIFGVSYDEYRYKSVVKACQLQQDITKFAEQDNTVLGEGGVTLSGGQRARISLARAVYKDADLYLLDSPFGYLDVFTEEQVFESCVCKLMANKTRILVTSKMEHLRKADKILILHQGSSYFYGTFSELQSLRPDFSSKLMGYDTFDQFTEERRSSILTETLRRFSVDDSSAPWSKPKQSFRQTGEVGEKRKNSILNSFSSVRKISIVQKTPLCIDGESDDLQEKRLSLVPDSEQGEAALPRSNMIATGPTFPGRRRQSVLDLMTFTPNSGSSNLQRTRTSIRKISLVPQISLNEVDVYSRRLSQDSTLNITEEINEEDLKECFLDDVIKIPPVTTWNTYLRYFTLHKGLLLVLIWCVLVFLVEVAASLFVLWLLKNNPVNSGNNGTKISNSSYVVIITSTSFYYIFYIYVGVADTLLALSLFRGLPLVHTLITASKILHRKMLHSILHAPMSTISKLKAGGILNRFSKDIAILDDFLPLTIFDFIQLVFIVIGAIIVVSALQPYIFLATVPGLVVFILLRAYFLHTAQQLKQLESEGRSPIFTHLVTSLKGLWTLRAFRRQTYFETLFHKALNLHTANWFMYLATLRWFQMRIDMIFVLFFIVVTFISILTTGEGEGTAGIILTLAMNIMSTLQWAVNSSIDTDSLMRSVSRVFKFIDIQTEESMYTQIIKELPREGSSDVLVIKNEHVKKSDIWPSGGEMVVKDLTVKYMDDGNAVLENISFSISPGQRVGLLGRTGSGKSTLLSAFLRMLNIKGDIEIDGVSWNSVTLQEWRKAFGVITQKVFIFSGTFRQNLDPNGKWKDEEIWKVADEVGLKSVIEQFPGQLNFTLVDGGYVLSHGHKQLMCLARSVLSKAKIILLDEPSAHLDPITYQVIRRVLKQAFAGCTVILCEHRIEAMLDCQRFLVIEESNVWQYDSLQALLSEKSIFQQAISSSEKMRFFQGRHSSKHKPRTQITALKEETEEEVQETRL

Assays:
[1] = target: T1, Dvl2 (mouse (endogenous in kidney tissue)) (UniProt Q60838); assay: co-IP; kidney tissue lysates (RIPA buffer) of T1D (STZ) mice and controls; immunoprecipitated with IgG (negative control), anti-CFTR or anti-Dvl2 antibodies on Dynabeads Protein G; blotted with anti-CFTR and anti-Dvl2
T1 sequence: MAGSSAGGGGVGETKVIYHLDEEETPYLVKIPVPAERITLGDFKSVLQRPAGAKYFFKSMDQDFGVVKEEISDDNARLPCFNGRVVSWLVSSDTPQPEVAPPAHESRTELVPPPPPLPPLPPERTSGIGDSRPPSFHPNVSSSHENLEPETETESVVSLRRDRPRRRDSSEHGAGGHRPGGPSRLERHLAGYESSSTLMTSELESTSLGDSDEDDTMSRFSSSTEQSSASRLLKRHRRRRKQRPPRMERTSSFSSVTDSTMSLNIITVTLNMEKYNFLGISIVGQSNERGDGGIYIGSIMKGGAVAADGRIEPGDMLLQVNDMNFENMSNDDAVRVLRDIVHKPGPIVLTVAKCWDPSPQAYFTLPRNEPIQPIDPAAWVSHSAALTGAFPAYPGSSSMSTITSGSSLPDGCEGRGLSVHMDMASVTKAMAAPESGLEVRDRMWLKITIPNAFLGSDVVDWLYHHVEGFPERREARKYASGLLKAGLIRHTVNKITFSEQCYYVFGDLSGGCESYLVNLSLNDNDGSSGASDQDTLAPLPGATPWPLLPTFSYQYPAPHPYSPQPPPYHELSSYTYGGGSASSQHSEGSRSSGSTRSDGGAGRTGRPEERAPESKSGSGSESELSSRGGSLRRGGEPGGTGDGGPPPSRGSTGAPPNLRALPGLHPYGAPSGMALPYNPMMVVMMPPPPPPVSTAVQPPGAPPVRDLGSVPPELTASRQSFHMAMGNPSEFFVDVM

[2] = target: Cystic fibrosis transmembrane conductance regulator (CFTR) (mouse (endogenous in kidney tissue)) (UniProt P26361); assay: as above

- binding [1]: binds
Molecule: Cystic fibrosis transmembrane conductance regulator (CFTR) (from UniProt P26361 1-1476)

- binding [2]: binds
B1: Dvl2 (protein, UniProt Q60838 1-736)
chain: T1 sequence
